Measurements reported in PubChem BioAssay AID624291 (National Center for Advancing Translational Sciences (NCATS), 2012).
The campaign covered roughly 350,000 compounds. About 220 (0.063%) were called active. The inconclusive results got no clear call from the source; some entries with a clear call stand among them for comparison. Calls come from the whole dose curve; as a rule, active = well fitted activation curve with a large enough effect; inconclusive = small, poorly fitted or top-dose-only effect; inactive = no such curve, though single readings can be large or run the other way. Where the call is inconclusive, the potency comes from a doubtful curve fit.

Assay: qHTS for Activators of Integrin-Mediated Alleviation for Muscular Dystrophy; note: nearly all actives have a fitted effect of over 60% in size;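 for activation: 100% = response of the positive control SU9516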
Details: alpha7betagal myoblasts, beta-gal FDG fluorescence, 48 h; activation: at 38.3 µM (top of the series)
In short: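 alpha7betagal+/- myoblasts (passage 13, 250/well) treated 48 h at 37C with compounds at 1:260 dilution of DMSO stock. Lysed, then beta-galactosidase activity read as FDG fluorescence (ex 480/em 540) after 30 min, with pre-read for autofluorescence.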
Potency is the fitted concentration of half-maximal effect.

Potency, inactive:
COc1ccc(OC)c(S(=O)(=O)Nc2ccc(Oc3ccccc3)cc2)c1
Cc1cccc(C)c1NC(=O)c1ccc(-c2ccc(Cl)cc2Cl)o1
C/C(=C\c1cccc(Br)c1)C(=O)c1c(C)cc(C)[nH]c1=O
CCCCc1cc(=O)oc2cc(OCC(=O)NC(Cc3c[nH]c4ccc(O)cc34)C(=O)O)ccc12 (stereo not drawn)
O=C(NC(=S)Nc1ccccc1C(F)(F)F)c1ccccc1F
O=C(COC(=O)C1CC(O)CN1S(=O)(=O)c1ccc(Cl)cc1)c1ccccc1 (stereo not drawn)
CCOC(=O)c1sc(NC(=S)NC(=O)c2ccccc2)c(C(=O)OCC)c1C
CC(C)c1nnc(NC(=O)CC(=O)Nc2ccccc2C(=O)O)s1
O=C(Nc1ccccc1F)c1ccc(C(=O)c2ccccc2)cc1
COc1ccc(Cn2c(CO)cnc2SCC(=O)Nc2cccc(NC(C)=O)c2)cc1
Cc1ccc(/C=C/c2onc(C)c2S(=O)(=O)N2CCC(C(=O)N3CCCCC3)CC2)cc1
Cc1nc(N)c(C#N)c(-c2cccnc2)c1-c1ccccc1
CCC(=O)N1CCc2cc(S(=O)(=O)CCC(=O)NCc3cccc(OC)c3)ccc21
C#CCOCCOCCOCCNc1nc(N2CCN(C(=O)C([C@@H](C)CC)n3cc(C(N)COC(=O)C(F)(F)F)nn3)CC2)nc(N2CCN(C(=O)[C@H](CCC(=O)O)n3cc(C(N)CC(C)C)nn3)CC2)n1 (stereo partly drawn)

Potency, inconclusive:
CC1CCCN(C2=C(NS(=O)(=O)c3ccc(Br)cc3)C(=O)c3ccccc3C2=O)C1 (stereo not drawn) 3.16 µM [activator, partial curve, poor fit]
CCc1c(C)nc(N2CCN(c3ccc(OC)cc3)CC2)[nH]c1=O 28.2 µM [activator, single point]
N#Cc1ccc(-c2cccnc2)nc1SCC(=O)c1ccccc1 2.82 µM [activator, single point]
CCCCNC(=O)CC1NCCNC1=O (stereo not drawn) 8.91 µM [activator, partial curve, poor fit]
Cc1cccc(NC(=O)CSc2nccn2Cc2ccco2)c1C 28.2 µM [activator, single point]
CCOC(=O)c1c(NC(=O)c2c(-c3ccccc3)noc2C)sc(C)c1-c1ccccc1 3.55 µM [activator, single point]
COC(=O)c1c(C)oc(C)c1S(=O)(=O)Nc1ccccc1 28.2 µM [activator, single point]
COc1ccc(-c2csc(NC(=O)CSCC(=O)Nc3cc(C)on3)n2)cc1OC 10 µM [activator, single point]
CCCS(=O)(=O)N1CCC(C(=O)NCc2ccc3c(c2)OCO3)CC1 17.8 µM [activator, single point]
Cn1nccc1C(=O)N1CCN(c2cccc(C(F)(F)F)c2)CC1 1.26 µM [activator, full curve, poor fit]
Nc1nonc1-n1nnc(C(=O)N/N=C/c2cccc(O)c2)c1CN1CCCC1 3.16 µM [activator, single point]
NC(=O)CSc1nnc2ccc(-c3ccc(F)cc3)nn12 2.24 µM [activator, full curve, poor fit]
C=CCN(CC=C)S(=O)(=O)c1ccc(C(=O)Nc2nnc(COC)o2)cc1 4.47 µM [activator, single point]
CNC(=O)c1ccc2nc(NC(C)=O)sc2c1 11.2 µM [activator, partial curve, poor fit]
Cc1nnc2c3ccccc3c(-c3cccs3)nn12 2 µM [activator, full curve, poor fit]
CCOc1cc(/C=N/NC(=O)Cn2nc([N+](=O)[O-])cc2C)cc(Br)c1OCc1ccccc1C 5.01 µM [activator, single point]
COC(=O)c1cc(NC(=O)c2cccc([N+](=O)[O-])c2C)ccc1Cl 4.47 µM [activator, single point]
CC(C)(C)c1ccccc1NC(=O)N1CCNC(=O)C1CC(=O)Nc1ccc(F)cc1 (stereo not drawn) 3.16 µM [activator, single point]
Clc1ccccc1-c1nnc(-c2cccnc2)o1 28.2 µM [activator, single point]
COc1cccc(C(=O)OC2CCN(C)CC2)c1 5.01 µM [activator, single point]
Cc1cccc(C)c1NC(=O)CNC(=O)c1c(-c2ccccc2)noc1C 28.2 µM [activator, single point]
N#CC(C#N)=C1NC2(CCCCC2)Cc2ccccc21 11.2 µM [activator, single point]
CCOC(=O)CNS(=O)(=O)c1ccc2c3c(cccc13)C(=O)N2CC 5.01 µM [activator, single point]
Cc1nn(CC(C)C)c(Cl)c1C(=O)N(c1ccc(Cl)cc1F)S(C)(=O)=O 5.01 µM [activator, single point]
CC(=O)Nc1nc(-c2ccc3ccccc3c2)cs1 3.55 µM [activator, single point]
Cc1cc(C(=O)NNC(=O)c2cccc(C(F)(F)F)c2)no1 11.2 µM [activator, single point]
COc1ccc(Cl)cc1N(CC(=O)NC1CC2CCC1C2)S(=O)(=O)c1ccccc1 (stereo not drawn) 2 µM [activator, partial curve, poor fit]
N=C1C(c2nc3ccccc3s2)=C(O)CN1NC(=O)c1ccco1 10 µM [activator, single point]

Quoted at random: 2 records from the list, in no set order.
Potency, inconclusive:
CCCCNC(=O)CC1NCCNC1=O (stereo not drawn) 8.91 µM [activator, partial curve, poor fit]
N#CC(C#N)=C1NC2(CCCCC2)Cc2ccccc21 11.2 µM [activator, single point]

Following part:

activation, inconclusive:
Cc1ccc(S(=O)(=O)N(C)C)cc1NC(=O)COC(=O)c1ccc2c(c1)OCCO2 -8.73% [activator]
